Measured values reported in article PMC10009991.
Results are given in words; binding and its absence hold for the method and conditions named. Binding seen in cells or lysates may run through a third protein. Binding can be weak; no strength is given.

The chains behind the UniProt entries cited, without tags or fusion partners. Where a name states a change or a piece, a line headed by the entry shows the natural chain unless it says otherwise. Residues count along the entry.
UniProt P48061, residues 22-93: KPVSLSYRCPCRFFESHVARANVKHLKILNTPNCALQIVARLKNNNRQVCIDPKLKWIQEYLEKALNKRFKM
UniProt Q99542: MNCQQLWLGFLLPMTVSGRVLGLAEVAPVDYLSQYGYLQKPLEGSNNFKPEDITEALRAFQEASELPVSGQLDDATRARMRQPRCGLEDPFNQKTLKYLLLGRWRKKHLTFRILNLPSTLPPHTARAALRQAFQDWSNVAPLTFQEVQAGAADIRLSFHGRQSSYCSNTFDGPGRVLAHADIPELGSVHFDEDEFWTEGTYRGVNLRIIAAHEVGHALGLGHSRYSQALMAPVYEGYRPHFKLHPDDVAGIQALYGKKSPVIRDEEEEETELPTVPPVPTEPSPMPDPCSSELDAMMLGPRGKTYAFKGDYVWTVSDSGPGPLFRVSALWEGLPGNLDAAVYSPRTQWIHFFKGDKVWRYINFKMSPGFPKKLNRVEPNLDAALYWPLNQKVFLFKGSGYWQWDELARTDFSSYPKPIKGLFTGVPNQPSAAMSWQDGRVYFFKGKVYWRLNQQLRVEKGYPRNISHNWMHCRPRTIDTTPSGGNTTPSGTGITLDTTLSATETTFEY

Target: C-X-C motif chemokine ligand 12 (CXCL12, SDF1) (human (endogenous in HPMECs)) (UniProt P48061)
Experiment: co-IP; HPMEC lysate (800 µg) with 8 µg of anti-MMP19, anti-ET1 or anti-SDF1, 4 °C overnight; Protein A/G magnetic beads (Pierce Classic Magnetic IP/Co-IP Kit), room temperature 3 h; immunoblot

For “Matrix metalloproteinase 19 (MMP19) (from UniProt Q99542) (enzyme)”, the binding was “binds”.
